Results taken from PMC3241699.
No constants are given. Whether binding was seen depends on the method and setting. Some results given as binding are weak or reduced against the parent protein; the word gives no strength. Where a sequence is shown, tags or fusion partners need not be part of it.

Target: T1, yeast Nip7p fused to the DNA binding domain of lexA (yeast (S. cerevisiae)) (UniProt Q08962)
T1 sequence: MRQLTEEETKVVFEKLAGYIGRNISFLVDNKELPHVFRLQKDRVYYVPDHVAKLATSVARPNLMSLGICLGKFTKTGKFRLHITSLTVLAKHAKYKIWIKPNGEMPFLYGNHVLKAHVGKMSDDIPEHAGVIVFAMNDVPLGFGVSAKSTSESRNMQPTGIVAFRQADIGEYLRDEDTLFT
Experiment: two-hybrid; yeast strain L40; lexA DNA-binding domain fusion as bait, GAL4 activation domain fusion (pACT2) as prey; reporters HIS3 (growth with 3-aminotriazole) and lacZ (X-Gal filter assay)

binding: binds
B1: yeast Nop8p fused to activation domain of GAL4 (protein, UniProt Q08287 1-484)
chain: MDSVIQKRIFVGNIFHNADDCYSELLDRFGKFGDCQDFQFEKHNHFAFIDIRFNDEADFNKLRKSFNNVKFKGNILKVDEAKPNWESTWAVQHAKDLKEDIILNAKMKKKNWQHYKKMENVAKSWKDHKEVIAGRMREAPRKRSQLRNITFRINVNGSLKVYKCYKTKLWGYERNKELNDLVYKFTNNFWKNGYNHIVDRLDYSRAVKTVRFKNGLKQLTVSKDENVCSGEMDSDENMSEEEKEKNNVILNDLLKDFDFDKPMTLNDSDEELLTEQRKGEEEEEEEEEKEVNAPEYENVNKTKDQSTLPQEKPEERKEQDEGDGQEDNEFIPTFTKEIGQGTISNTETLRNLFNPNEAEPVSQFKLIEDSDNDIDHAKDVDVNQLEEEVSKSSDTLGLTSAPVPHVSRDKDNKNFLFFPHLQSPFLVGQTQLSKVRAPGRETMLSNWDEEFWANRGNWTRDMRRKMKDALKHRKRKQSKSGLLL
